Assay results reported in article PMC10080908.
Results are given in words; binding and its absence hold for the method and conditions named. In cells and extracts the contact can be indirect. For part of these data: Binding can be weak; no strength is given. Sequences can lack the tags named with a protein.

Tests used:
Assay in all cases: co-IP; HEK-293 cells transiently transfected with HA-UBXN7-WT and the Flag-RNF111 constructs; lysates in IP150 buffer (150 mM NaCl, 20 mM Tris-HCl pH 7.5, 5 mM EDTA, 1% NP40, 10% glycerol) immunoprecipitated with Flag antibody and Protein G Sepharose overnight at 4 °C; western blot with HA and Flag antibodies
[1] = target: Flag-RNF111 Δ869-894 (human)
[2] = target: Flag-RNF111 Δ757-844 (human)
[3] = target: Flag-RNF111 Δ845-868 (human)
[4] = target: Flag-RNF111 Δ933-Cter (human)
[5] = target: Flag-RNF111 Δ895-932 (human)
[6] = target: Flag-RNF111 Δ671-756 (human)

binding [1]: binds | binding [2]: binds | binding [3]: binds | binding [4]: no binding | binding [5]: binds weakly | binding [6]: binds
B1: HA-UBXN7-WT (protein, UniProt O94888 1-489)
chain: MAAHGGSAASSALKGLIQQFTTITGASESVGKHMLEACNNNLEMAVTMFLDGGGIAEEPSTSSASVSTVRPHTEEEVRAPIPQKQEILVEPEPLFGAPKRRRPARSIFDGFRDFQTETIRQEQELRNGGAIDKKLTTLADLFRPPIDLMHKGSFETAKECGQMQNKWLMINIQNVQDFACQCLNRDVWSNEAVKNIIREHFIFWQVYHDSEEGQRYIQFYKLGDFPYVSILDPRTGQKLVEWHQLDVSSFLDQVTGFLGEHGQLDGLSSSPPKKCARSESLIDASEDSQLEAAIRASLQETHFDSTQTKQDSRSDEESESELFSGSEEFISVCGSDEEEEVENLAKSRKSPHKDLGHRKEENRRPLTEPPVRTDPGTATNHQGLPAVDSEILEMPPEKADGVVEGIDVNGPKAQLMLRYPDGKREQITLPEQAKLLALVKHVQSKGYPNERFELLTNFPRRKLSHLDYDITLQEAGLCPQETVFVQERN
